Patent US9365615B2 (JITSUBO Co., Ltd., priority 2013, dated 2016)
Some peptides are written in HELM: one residue between dots, names in brackets for other building blocks, links after the first $.

Assay: general procedure: solution-phase peptide synthesis; hydrophobic carrier for liquid phase synthesis (alkoxy-substituted benzyl groups Ka, Kb, Kc); HATU/HOAt/DIPEA
Conditions: late stage modification step

With “PEPTIDE1{Y.K.W.S.Q.Y.L.[NbuGly].Y}$PEPTIDE1,PEPTIDE1,2:R3-8:R3$$$V2.0” as the substance, how does the step yield (from compound 25) read?
Its step yield is 52.6%.

Which step yield (from compound 27) does the source give for “PEPTIDE1{Y.[Lys_NeAc].W.S.Q.Y.L.[NbuGly].Y}$PEPTIDE1,PEPTIDE1,2:R3-8:R3$$$V2.0” here?
The step yield was 59.8%.

Which step yield does the source give for “PEPTIDE1{Y.[Lys_NePr].W.S.Q.Y.L.[NbuGly].Y}$PEPTIDE1,PEPTIDE1,2:R3-8:R3$$$V2.0” here?
The step yield was 20.7%.

With “PEPTIDE1{[ac].Y.K.W.S.Q.Y.L.[NbuGly].Y}$PEPTIDE1,PEPTIDE1,3:R3-9:R3$$$V2.0” as the substance, how does the step yield (from compound 19) read?
The step yield was 23.4%.

Which step yield (from compound 22) does the source give for “PEPTIDE1{[ac].Y.[Lys_NeAc].W.S.Q.Y.L.[NbuGly].Y}$PEPTIDE1,PEPTIDE1,3:R3-9:R3$$$V2.0” here?
Its step yield is 37.4%.

With “[C] is Trp-Ser-Gln-Tyr-Leu and [D] is Tyr” as the substance, how does the step yield read?
The step yield was 45.3%.
